{
  "sequences": {"note": "By UniProt entry, the sequences of proteins in these tests, tags left out.", "UniProt Q96RN5": "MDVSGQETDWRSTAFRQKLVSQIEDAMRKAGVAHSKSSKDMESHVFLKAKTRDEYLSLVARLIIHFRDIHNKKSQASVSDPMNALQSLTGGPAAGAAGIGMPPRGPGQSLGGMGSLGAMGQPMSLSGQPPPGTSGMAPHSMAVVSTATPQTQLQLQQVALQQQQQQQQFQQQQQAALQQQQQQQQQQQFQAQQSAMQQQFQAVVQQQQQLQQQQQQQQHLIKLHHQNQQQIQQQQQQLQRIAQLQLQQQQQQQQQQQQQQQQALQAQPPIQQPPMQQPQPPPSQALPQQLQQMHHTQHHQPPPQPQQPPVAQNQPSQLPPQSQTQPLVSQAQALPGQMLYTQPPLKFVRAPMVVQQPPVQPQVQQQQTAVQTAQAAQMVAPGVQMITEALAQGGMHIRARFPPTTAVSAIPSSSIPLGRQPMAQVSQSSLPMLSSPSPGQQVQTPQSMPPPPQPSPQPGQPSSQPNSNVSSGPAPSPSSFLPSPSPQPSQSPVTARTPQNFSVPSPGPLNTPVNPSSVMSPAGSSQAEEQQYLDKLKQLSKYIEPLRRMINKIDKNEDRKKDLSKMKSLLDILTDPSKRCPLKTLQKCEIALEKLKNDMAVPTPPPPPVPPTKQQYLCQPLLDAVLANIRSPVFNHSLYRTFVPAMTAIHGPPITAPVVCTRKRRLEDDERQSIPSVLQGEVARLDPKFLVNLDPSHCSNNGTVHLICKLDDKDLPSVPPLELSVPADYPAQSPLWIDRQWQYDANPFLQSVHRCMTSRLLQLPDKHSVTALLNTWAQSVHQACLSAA"},
  "source": "paper PMC12365249",
  "molecular_target": "HA-MED15 (Mediator subunit MED15, HA tag knocked into the N-terminus of the endogenous gene) (human (endogenous in 293T)) (UniProt Q96RN5)",
  "assay": "affinity purification with mass spectrometry; HA IP with anti-HA magnetic beads from nuclear extracts of HA-MED15 knock-in 293T cells against 293T WT control cells, n = 3",
  "note": "No constants are given. Whether binding was seen depends on the method and setting. Binding seen in cells or lysates may run through a third protein. These calls come from enrichment with a bait or labelling near it, and not all partners need be listed.",
  "data": [
    {"binder": "forkhead box protein A1 (FOXA1), endogenous in 293T cells (protein, UniProt P55317 1-472) MLGTVKMEGHETSDWNSYYADTQEAYSSVPVSNMNSGLGSMNSMNTYMTMNTMTTSGNMTPASFNMSYANPGLGAGLSPGAVAGMPGGSAGAMNSMTAAGVTAMGTALSPSGMGAMGAQQAASMNGLGPYAAAMNPCMSPMAYAPSNLGRSRAGGGGDAKTFKRSYPHAKPPYSYISLITMAIQQAPSKMLTLSEIYQWIMDLFPYYRQNQQRWQNSIRHSLSFNDCFVKVARSPDKPGKGSYWTLHPDSGNMFENGCYLRRQKRFKCEKQPGAGGGGGSGSGGSGAKGGPESRKDPSGASNPSADSPLHRGVHGKTGQLEGAPAPGPAASPQTLDHSGATATGGASELKTPASSTAPPISSGPGALASVPASHPAHGLAPHESQLHLKGDPHYSFNHPFSINNLMSSSEQQHKLDFKAYEQALQYSPYGSTLPASLPLGSASVTTRSPIEPSALEPAYYQGVYSRPVLNTS", "values": [
      {"measurement": "binding", "result": "binds"}
    ]}
  ]
}
